Results on two substances are retold here after paper PMC10976589.

Amino acid sequences for entries named in this document (tags omitted). A change or cut given only in a name is not applied to a line headed by its entry. Chains listed by the source or under a name are the forms on record and can include a tag or linker.
UniProt P23528: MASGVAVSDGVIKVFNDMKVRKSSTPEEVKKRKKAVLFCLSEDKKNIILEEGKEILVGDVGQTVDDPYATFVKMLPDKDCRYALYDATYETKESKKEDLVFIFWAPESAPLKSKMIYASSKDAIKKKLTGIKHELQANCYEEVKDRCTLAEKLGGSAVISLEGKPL
UniProt Q9Y281: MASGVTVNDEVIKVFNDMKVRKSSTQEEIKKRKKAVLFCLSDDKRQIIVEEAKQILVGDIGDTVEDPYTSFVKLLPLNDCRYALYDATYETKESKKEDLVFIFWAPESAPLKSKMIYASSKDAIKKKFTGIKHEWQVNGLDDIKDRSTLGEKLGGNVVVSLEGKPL
His-cofilin2ΔS24 (cofilin2 without Ser24) (Q9Y281, form named): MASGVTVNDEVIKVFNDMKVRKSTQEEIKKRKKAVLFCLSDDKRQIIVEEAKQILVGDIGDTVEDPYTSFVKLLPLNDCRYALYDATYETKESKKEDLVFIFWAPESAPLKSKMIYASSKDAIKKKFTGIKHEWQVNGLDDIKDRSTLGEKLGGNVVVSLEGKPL
UniProt P78527: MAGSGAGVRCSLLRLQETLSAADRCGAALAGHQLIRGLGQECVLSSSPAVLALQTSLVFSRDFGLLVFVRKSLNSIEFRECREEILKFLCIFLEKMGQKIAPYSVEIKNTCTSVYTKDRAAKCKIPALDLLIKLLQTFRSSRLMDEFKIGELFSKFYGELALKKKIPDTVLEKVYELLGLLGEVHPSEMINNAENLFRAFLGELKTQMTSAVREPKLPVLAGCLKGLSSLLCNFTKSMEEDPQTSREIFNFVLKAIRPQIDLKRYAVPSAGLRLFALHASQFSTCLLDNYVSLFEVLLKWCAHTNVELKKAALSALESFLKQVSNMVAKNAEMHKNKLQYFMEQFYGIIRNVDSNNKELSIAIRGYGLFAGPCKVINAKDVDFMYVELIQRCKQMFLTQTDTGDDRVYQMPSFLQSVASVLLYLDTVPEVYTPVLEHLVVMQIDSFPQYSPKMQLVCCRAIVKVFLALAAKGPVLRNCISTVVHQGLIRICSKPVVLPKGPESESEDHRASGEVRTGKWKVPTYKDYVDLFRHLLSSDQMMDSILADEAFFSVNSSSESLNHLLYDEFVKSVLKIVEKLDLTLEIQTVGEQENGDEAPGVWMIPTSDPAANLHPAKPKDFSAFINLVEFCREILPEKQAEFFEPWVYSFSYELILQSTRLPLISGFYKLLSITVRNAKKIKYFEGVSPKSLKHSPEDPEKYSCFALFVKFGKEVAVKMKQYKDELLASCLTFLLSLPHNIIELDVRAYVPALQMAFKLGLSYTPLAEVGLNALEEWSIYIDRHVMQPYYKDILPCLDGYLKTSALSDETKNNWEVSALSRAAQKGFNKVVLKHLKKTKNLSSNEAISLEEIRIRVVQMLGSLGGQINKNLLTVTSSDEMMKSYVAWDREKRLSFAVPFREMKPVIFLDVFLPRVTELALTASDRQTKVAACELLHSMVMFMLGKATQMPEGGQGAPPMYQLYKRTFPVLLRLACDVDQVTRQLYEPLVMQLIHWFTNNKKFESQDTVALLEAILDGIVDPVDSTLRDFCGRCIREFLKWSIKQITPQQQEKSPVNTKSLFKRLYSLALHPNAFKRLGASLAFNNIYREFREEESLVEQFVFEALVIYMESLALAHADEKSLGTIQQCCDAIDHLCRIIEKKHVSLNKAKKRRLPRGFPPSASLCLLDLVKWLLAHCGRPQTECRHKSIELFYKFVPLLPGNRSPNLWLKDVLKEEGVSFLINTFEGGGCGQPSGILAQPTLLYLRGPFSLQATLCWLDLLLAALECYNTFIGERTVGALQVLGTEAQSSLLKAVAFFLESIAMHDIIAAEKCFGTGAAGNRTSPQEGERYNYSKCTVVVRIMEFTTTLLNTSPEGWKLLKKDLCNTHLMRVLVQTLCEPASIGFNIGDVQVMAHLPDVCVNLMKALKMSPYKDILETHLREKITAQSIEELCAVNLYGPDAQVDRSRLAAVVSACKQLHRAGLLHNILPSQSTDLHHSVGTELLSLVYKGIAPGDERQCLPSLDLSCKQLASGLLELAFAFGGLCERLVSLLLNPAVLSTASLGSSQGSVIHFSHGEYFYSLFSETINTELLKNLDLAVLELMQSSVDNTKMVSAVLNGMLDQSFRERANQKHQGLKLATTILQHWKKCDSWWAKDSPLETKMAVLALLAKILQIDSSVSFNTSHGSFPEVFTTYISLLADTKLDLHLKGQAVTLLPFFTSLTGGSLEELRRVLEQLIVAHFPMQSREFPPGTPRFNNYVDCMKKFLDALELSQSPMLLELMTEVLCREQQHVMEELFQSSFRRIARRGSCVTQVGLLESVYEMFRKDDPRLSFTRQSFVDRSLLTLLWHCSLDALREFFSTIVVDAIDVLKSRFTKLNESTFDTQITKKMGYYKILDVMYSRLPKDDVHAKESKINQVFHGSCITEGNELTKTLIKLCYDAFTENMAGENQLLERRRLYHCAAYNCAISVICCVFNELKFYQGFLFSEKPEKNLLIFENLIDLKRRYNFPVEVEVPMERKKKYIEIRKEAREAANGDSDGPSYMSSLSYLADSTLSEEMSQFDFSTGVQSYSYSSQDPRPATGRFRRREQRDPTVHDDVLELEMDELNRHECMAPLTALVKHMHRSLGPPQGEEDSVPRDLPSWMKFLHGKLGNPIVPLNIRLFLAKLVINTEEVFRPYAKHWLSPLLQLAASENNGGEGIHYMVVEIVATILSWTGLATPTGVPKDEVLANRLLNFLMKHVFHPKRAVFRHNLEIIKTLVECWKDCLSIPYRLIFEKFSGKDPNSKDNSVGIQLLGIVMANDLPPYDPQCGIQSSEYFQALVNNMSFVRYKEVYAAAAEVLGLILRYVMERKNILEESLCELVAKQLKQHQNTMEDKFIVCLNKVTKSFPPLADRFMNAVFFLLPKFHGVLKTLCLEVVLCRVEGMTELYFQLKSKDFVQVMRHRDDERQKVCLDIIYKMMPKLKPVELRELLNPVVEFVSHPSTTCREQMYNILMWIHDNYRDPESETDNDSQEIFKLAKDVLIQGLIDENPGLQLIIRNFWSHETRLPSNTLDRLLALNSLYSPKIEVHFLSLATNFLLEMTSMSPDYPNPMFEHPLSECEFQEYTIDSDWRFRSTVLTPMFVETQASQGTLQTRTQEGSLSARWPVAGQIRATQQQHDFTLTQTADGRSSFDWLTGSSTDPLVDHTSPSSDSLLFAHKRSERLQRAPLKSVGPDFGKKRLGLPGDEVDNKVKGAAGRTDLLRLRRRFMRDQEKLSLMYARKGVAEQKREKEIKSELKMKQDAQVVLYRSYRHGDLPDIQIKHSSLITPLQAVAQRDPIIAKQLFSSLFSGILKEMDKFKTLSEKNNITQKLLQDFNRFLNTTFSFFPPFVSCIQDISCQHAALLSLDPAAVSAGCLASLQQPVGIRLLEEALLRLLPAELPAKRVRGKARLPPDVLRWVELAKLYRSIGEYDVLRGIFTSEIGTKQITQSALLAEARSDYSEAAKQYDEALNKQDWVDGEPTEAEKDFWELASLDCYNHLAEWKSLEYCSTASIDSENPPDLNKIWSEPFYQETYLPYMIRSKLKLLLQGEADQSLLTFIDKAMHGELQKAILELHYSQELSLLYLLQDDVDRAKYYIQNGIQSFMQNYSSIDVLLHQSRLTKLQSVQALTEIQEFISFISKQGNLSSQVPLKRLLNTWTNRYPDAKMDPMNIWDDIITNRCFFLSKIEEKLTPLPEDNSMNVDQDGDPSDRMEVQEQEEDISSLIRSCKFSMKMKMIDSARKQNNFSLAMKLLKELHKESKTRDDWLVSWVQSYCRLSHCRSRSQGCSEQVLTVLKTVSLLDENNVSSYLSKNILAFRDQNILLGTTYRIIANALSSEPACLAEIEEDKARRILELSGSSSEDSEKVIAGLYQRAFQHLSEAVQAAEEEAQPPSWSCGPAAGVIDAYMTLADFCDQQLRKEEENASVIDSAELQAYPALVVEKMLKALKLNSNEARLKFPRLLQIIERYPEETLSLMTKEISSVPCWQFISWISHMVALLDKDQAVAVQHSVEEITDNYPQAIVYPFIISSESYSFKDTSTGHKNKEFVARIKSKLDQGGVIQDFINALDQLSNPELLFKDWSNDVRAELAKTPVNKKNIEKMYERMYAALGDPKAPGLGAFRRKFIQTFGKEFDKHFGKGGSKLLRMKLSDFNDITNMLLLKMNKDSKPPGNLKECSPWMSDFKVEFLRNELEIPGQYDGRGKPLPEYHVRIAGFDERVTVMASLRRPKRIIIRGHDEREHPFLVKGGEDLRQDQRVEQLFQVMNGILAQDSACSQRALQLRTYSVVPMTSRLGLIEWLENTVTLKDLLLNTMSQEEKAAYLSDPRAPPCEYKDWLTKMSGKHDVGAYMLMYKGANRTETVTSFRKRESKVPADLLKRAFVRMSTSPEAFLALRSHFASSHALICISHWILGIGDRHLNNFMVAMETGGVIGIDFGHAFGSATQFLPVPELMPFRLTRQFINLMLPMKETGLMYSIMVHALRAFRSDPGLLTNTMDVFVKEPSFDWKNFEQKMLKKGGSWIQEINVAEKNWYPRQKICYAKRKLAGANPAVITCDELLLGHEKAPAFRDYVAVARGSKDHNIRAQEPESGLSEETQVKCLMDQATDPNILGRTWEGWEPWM

These are yes or no findings as the source states them, for the method shown. Binding seen in cells or lysates may run through a third protein. Some results given as binding are weak or reduced against the parent protein; the word gives no strength.

Assay [1] concerns the target T1, ADF (destrin), endogenous in HCAECs (human (endogenous in HCAECs)) (UniProt P60981).
T1 sequence: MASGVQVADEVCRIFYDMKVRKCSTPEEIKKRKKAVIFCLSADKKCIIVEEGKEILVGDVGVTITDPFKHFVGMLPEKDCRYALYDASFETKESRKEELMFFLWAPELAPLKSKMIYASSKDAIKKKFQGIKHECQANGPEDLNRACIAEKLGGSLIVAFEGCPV
Kind of assay: co-IP; exogenous HA-DNA-PKcs (Fig. S8C to E); cells and treatment not told in the text shown.

Assay [2] has as its target cofilin1, endogenous in HCAECs (human (endogenous in HCAECs)) (UniProt P23528). The description is as above.
In assay [3] the target is cofilin2, endogenous in HCAECs (human (endogenous in HCAECs)) (UniProt Q9Y281). The description is as above.
Assay [4] addresses His-cofilin2ΔS24 (cofilin2 without Ser24) (UniProt Q9Y281). In words: co-IP; HCAECs transfected with His-tagged cofilin2 deletion constructs, exposed to LPS; His immunoprecipitates immunoblotted for DNA-PKcs (Fig. 6M).
For assay [5], the target named is T1, ADF (destrin), endogenous in HCAECs (human (endogenous in HCAECs)). Kind of assay: co-IP; endogenous proteins of HCAECs, control conditions or LPS; immunoprecipitates of DNA-PKcs and of cofilin1, cofilin2 or ADF immunoblotted (Fig. 6F to H). In general terms: In western blotting, separated proteins are transferred to a membrane and probed.
Assay [6] concerns the target cofilin1, endogenous in HCAECs (human (endogenous in HCAECs)) (UniProt P23528). The assay is described as above.
Assay [7] deals with cofilin2, endogenous in HCAECs (human (endogenous in HCAECs)) (UniProt Q9Y281). Described as above.

“HA-DNA-PKcs (catalytic subunit of DNA-dependent protein kinase, HA-tagged, exogenous) (from UniProt P78527 1-4128) (enzyme)”: the binding entry is listed as “no binding” in assay [1], “no binding” in assay [2] and “binds” in assay [3].

“catalytic subunit of DNA-dependent protein kinase (DNA-PKcs), endogenous in HCAECs (from UniProt P78527 1-4128) (enzyme)”: the binding entry is given as “binds” in assay [4], “no binding” in assay [5], “no binding” in assay [6] and “binds” in assay [7].
